Test results taken from the supplement of paper PMC10849652.
The list shows a part of the results. Residues, ends and D or L forms follow the SMILES beside them. *: point of attachment. Cbz = O=C(OCc1ccccc1)*

The chains behind the UniProt entries cited, without tags or fusion partners. Where a name states a change or a piece, a line headed by the entry shows the natural chain unless it says otherwise.
UniProt Q9H0R8, whole entry, looked up: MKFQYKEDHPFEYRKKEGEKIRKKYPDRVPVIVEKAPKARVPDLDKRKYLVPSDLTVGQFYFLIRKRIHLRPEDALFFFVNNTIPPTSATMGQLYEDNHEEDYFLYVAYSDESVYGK
UniProt P23769: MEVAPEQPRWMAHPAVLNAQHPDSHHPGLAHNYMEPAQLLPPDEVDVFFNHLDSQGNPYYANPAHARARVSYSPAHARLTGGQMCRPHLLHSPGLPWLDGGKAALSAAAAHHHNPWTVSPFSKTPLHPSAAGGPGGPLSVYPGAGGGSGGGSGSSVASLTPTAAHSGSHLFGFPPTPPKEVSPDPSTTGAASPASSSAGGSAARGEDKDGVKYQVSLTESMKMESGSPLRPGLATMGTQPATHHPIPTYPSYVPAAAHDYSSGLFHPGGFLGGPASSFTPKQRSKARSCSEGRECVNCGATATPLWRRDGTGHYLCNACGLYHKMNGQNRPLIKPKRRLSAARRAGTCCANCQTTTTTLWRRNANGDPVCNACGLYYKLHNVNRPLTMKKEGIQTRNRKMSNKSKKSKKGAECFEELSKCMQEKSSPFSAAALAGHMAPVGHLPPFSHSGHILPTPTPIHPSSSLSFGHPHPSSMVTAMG
UniProt Q6ZNW5: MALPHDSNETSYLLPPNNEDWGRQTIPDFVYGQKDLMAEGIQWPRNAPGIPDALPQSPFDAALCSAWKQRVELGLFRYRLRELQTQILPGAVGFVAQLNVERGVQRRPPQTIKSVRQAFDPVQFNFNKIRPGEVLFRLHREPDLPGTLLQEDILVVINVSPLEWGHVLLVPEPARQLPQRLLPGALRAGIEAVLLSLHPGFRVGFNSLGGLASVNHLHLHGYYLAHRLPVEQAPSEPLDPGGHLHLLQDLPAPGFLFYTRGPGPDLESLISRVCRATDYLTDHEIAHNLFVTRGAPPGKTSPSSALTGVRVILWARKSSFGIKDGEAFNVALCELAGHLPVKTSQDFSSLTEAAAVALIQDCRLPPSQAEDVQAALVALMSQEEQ
UniProt P15407: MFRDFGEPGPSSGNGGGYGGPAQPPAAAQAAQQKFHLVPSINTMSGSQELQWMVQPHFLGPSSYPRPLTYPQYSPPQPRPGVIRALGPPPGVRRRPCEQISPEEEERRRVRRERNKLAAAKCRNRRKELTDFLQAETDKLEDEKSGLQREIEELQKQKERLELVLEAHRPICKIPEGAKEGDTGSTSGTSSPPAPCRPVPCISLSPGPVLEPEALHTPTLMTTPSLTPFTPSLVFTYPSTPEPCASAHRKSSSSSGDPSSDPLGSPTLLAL
UniProt P19440: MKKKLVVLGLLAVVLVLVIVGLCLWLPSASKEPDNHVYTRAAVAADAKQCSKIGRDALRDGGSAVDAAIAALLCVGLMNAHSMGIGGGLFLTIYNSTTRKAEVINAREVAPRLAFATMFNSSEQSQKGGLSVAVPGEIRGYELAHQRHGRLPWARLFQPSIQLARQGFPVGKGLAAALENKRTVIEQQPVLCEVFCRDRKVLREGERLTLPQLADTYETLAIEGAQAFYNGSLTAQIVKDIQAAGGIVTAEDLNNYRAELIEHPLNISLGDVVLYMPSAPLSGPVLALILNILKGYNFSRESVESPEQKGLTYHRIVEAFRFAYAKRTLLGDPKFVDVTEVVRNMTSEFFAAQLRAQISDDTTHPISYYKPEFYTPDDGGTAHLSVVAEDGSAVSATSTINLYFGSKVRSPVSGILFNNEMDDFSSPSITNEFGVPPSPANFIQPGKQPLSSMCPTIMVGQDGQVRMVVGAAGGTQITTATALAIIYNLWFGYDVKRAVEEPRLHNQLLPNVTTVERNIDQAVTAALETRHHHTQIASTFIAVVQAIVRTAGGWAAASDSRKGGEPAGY
UniProt Q8NCW6: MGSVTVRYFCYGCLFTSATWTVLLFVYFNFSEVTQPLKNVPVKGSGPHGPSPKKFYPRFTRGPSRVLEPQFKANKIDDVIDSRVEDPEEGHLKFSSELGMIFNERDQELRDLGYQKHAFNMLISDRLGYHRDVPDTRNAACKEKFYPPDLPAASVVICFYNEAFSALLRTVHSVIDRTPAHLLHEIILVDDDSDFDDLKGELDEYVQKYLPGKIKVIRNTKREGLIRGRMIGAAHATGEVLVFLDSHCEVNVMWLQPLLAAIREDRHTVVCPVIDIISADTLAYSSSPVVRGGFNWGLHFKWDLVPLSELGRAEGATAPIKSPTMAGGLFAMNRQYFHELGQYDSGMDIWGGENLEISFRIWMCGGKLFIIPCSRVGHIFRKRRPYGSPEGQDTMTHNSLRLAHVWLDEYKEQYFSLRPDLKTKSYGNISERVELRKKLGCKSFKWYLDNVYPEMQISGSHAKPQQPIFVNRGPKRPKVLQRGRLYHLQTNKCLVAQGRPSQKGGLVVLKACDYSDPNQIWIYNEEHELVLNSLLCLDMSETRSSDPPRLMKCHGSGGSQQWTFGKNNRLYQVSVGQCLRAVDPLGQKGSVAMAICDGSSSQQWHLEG
UniProt P16383: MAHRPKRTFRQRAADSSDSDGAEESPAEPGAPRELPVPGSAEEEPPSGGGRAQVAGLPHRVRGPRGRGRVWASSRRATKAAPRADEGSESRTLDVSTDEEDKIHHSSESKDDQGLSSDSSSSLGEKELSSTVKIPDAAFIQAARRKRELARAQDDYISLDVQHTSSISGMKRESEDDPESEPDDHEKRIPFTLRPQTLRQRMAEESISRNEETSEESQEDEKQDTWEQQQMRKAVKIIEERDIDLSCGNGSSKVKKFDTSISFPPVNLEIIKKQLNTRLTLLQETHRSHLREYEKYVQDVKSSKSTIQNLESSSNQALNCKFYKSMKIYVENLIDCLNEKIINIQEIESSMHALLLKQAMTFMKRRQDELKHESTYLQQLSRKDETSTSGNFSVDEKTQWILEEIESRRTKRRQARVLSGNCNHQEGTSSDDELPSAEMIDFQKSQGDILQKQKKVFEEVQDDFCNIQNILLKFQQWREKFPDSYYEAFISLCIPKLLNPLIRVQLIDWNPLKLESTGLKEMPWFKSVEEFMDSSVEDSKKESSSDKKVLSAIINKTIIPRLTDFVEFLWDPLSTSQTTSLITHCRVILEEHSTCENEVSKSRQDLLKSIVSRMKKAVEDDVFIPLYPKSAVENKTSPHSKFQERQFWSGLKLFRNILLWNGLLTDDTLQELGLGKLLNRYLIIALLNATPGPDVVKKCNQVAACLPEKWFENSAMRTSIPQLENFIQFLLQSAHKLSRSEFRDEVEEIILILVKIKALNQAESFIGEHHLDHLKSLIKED
UniProt Q9UQC2, whole entry, looked up: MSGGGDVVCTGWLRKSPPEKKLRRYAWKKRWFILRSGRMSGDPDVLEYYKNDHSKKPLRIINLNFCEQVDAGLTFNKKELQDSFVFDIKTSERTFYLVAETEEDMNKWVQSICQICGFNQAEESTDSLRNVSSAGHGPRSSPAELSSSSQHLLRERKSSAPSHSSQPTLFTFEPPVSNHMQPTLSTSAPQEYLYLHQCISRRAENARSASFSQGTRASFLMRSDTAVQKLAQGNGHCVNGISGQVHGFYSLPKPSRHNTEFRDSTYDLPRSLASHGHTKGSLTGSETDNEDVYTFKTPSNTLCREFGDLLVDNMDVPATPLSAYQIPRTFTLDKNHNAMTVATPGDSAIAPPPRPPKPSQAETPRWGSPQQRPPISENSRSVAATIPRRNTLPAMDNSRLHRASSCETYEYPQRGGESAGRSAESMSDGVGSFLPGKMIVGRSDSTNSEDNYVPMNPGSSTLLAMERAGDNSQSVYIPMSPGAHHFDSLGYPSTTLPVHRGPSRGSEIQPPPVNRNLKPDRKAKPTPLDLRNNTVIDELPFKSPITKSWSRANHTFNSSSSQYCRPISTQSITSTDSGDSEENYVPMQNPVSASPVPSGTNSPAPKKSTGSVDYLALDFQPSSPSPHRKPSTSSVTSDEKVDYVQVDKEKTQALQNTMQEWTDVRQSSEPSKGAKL
UniProt Q5JV73, whole entry, looked up: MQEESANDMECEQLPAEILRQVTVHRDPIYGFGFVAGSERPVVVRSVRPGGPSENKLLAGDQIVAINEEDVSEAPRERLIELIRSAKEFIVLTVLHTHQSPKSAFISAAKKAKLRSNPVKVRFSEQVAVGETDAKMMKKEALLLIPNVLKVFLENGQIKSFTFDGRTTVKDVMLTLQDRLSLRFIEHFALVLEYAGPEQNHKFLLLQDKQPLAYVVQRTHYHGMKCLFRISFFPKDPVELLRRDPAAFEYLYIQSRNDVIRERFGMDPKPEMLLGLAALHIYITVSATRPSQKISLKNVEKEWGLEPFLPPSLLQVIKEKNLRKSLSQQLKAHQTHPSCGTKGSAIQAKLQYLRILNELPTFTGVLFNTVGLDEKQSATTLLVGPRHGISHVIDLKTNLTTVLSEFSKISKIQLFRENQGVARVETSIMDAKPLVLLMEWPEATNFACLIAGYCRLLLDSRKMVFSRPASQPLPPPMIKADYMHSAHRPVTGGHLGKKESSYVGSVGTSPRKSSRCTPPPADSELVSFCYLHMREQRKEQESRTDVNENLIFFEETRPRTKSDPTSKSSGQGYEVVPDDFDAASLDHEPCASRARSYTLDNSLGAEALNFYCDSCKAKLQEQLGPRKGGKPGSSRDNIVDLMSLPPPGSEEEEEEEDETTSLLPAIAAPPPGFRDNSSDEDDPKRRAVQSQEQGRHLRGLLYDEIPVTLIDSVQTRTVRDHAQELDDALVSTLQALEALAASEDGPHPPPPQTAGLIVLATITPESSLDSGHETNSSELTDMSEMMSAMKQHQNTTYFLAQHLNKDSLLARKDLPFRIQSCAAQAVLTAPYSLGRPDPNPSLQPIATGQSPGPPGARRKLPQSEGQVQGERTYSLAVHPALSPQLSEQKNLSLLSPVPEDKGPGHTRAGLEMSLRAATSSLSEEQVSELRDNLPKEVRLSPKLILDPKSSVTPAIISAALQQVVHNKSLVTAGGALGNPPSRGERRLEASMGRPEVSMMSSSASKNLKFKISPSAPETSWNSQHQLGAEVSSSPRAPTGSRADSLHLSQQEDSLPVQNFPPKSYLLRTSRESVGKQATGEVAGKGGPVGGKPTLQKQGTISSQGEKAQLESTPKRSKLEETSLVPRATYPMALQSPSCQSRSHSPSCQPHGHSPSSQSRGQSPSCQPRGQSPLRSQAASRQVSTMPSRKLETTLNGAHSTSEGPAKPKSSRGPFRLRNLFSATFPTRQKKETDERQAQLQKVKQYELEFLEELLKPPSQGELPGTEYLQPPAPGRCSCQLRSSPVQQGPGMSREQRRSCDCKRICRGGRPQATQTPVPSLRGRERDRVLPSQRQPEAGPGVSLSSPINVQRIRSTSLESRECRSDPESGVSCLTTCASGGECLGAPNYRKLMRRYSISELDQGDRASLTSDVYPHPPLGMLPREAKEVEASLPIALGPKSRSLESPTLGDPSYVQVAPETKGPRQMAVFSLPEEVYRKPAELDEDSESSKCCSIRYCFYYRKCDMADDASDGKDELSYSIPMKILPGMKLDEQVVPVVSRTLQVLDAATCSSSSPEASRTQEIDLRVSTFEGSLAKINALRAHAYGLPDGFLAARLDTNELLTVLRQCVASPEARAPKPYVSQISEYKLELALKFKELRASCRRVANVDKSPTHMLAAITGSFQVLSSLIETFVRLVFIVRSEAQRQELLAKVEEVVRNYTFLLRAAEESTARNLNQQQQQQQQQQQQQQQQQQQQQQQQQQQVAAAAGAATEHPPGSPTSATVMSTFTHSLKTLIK
UniProt Q8IVV7: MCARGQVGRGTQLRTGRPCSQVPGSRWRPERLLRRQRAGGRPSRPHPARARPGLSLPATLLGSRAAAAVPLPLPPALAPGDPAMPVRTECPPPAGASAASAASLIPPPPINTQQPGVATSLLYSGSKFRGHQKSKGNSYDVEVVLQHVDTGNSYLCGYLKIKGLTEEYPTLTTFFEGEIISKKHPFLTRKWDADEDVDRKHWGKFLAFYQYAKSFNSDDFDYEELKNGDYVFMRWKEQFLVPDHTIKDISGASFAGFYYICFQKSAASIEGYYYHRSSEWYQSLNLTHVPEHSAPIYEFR

Legend:
Test in all cases: log2 fold change, soluble protein after heating vs DMSO (PISA); higher = thermal stabilisation; K562 cells, 10 uM, 30 min; active = over 0.2 and 3.5 SD of the protein, either way, in both replicates (recomputed)
[1] = compound: C#Cc1cccc(Nc2ncnc3cc(OCCOC)c(OCCOC)cc23)c1 [erlotinib]
Procedure, shortened: (§1)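 K562 cells at 2×10^6 cells/mL were treated for 30 min with 10 μM compound, and aliquots were heated for 3 min over 48°C-58°C before pooling. Extraction used PBS with 0.5% NP-40 at 4°C, and soluble protein was the supernatant after 21,000xg for 90 min, measured by TMTpro 16plex LC-MS/MS with channel sums equalised. Thermal stability values, relative to control samples and from duplicates, are log2 fold changes.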

[2] = compound: C/C(=N\NC(=O)C1=CC(=CC=C1)S(=O)(=O)N2CCOCC2)/C3=C(C=CC(=C3)Cl)O
Procedure, shortened: as §1

[3] = compound: C1=CC(=C(C=C1Cl)C2=NC3=NC=CN=C3C(=N2)NC4=CC=NC=C4)F
Procedure, shortened: as §1

[4] = compound: C1=CC(=CC=C1C2=NC3=C(N2)C=C(C=C3)C(=O)N)OC4=CC=C(C=C4)Cl
Procedure, shortened: as §1

[5] = compound: C1=CC2=C(C=CC(=C2)/C=C\3/C(=O)NC(=NCC4=CC=CS4)S3)N=C1
Procedure, shortened: as §1

[6] = compound: C1=CC2=NC=CN=C2C=C1/C=C/3\C(=O)NC(=O)S3
Procedure, shortened: as §1

[7] = compound: C1=CC=C(C=C1)C2=NC(=C(N2)C3=CC=NC=C3)C4=CC(=C(C=C4)Cl)O
Procedure, shortened: as §1

[8] = compound: C1=CC=C2C(=C1)C3=NNC4=CC=CC(=C43)C2=O
Procedure, shortened: as §1

[9] = compound: C1CCN(C1)C(=O)NC2=CC=CC(=C2)NC3=NC=C(C(=N3)NCCC4=CN=CN4)Br
Procedure, shortened: as §1

[10] = compound: C1CN(CCC1(CC2=CC=C(C=C2)Cl)N)C3=NC=NC4=C3C=CN4
Procedure, shortened: as §1

[11] = compound: C1COCCN1CCN2C3=CC=CC=C3N=C2NC(=O)C4=CC(=CC=C4)[N+](=O)[O-] [IRAK-1-4 Inhibitor I]
Procedure, shortened: as §1

[12] = compound: C=CC(=O)N1CCC[C@@H](n2nc(-c3ccc(Oc4ccccc4)cc3)c3c(N)ncnc32)C1 [ibrutinib]
Procedure, shortened: as §1

[13] = compound: CC(=O)c1cnc2ccc(-c3cc(Cl)c(O)c(Cl)c3)nc2c1N[C@H]1CC[C@H](CN(C)C)CC1
Procedure, shortened: as §1

[14] = compound: CC(C)(C)Cn1c(N)nc2ccc(-c3[nH]c(C(C)(C)C)nc3-c3ccc(F)cc3)nc21 [ralimetinib]
Procedure, shortened: as §1

[15] = compound: CC(C)(O)CC(=O)NCCn1ccc2ncnc(Nc3ccc(Oc4cccc(C(F)(F)F)c4)c(Cl)c3)c21
Procedure, shortened: as §1

[16] = compound: CC(C)C1=C2N=C(C=C(N2N=C1)NCC3=CC=CC=C3)NCCCCCCN
Procedure, shortened: as §1

[17] = compound: CC(C)C[C@@H](C=O)NC(=O)[C@H](CC(C)C)NC(=O)[C@H](CC(C)C)NC(=O)OCc1ccccc1
Procedure, shortened: as §1

[18] = compound: CC(C)N(C[C@H]1O[C@@H](n2cnc3c(N)ncnc32)[C@H](O)[C@@H]1O)[C@H]1C[C@@H](CCc2nc3cc(C(C)(C)C)ccc3[nH]2)C1 [pinometostat]
Procedure, shortened: as §1

[19] = compound: CC1=C(C2=C(C=C1)C(=O)C3=CC=CC=C3N2CCCN)C
Procedure, shortened: as §1

[20] = compound: CC1=C(C(CC(=O)N1)C2=CC=C(C=C2)C(F)(F)F)C(=O)NC3=C(C=C4C(=C3)C=NN4)F
Procedure, shortened: as §1

Measured: log2 fold change

FNTB (UniProt P49356)
active: [1] 0.488
inactive: [2] 0.028 | [3] 0.203 | [4] 0.028 | [5] 0.208 | [6] -0.024 | [7] 0.091 | [8] 0.107 | [9] 0.326 | [10] 0.065 | [11] 0.017 | [12] 0.309 | [13] -0.028 | [14] -0.016 | [15] -0.025 | [16] 0.074 | [17] -0.033 | [18] -0.003 | [19] -0.087

GABPA (UniProt Q06546)
inactive: [1] 0.07 | [2] 0.121 | [3] 0.014 | [4] -0.042 | [5] 0.083 | [6] -0.055 | [7] 0.049 | [8] 0.025 | [9] -0.028 | [10] 0.011 | [11] -0.004 | [12] -0.014 | [13] -0.054 | [14] 0.001 | [15] -0.107 | [16] -0.243 | [17] -0.013 | [18] -0.007 | [19] -0.175

GABARAPL1 isoform 2 (UniProt Q9H0R8)
active: [16] -0.369
inactive: [1] 0.071 | [2] -0.012 | [3] -0.023 | [4] -0.029 | [5] 0.074 | [6] -0.033 | [7] -0.001 | [8] 0.02 | [9] -0.02 | [10] 0.016 | [11] 0.031 | [12] -0.057 | [13] -0.065 | [14] -0.003 | [15] -0.024 | [17] 0.092 | [18] -0.044 | [19] 0.023

FTSJ3 (UniProt Q8IY81)
inactive: [1] -0.127 | [2] 0.012 | [4] 0.104 | [5] -0.014 | [7] 0.029 | [8] 0.052 | [13] -0.048 | [14] 0.194 | [16] -0.018 | [17] 0.203

GDI2 (UniProt Q5SX86)
inactive: [1] -0.038 | [3] 0.023 | [4] -0.151 | [6] 0.102 | [7] -0.217 | [11] 0.01 | [12] 0.024 | [14] -0.129 | [15] 0.036 | [16] 0.046 | [17] -0.103 | [18] -0.038

GATA2 (UniProt P23769)
inactive: [1] 0.026 | [2] -0.092 | [4] -0.133 | [5] -0.072 | [6] 0.004 | [7] 0.005 | [8] -0.043 | [12] 0.068 | [13] 0.021 | [14] 0.003 | [16] 0.229 | [17] 0.204 | [20] -0.022

GDPGP1 (UniProt Q6ZNW5)
inactive: [1] 0.01 | [2] 0.09 | [4] 0.003 | [5] -0.067 | [8] 0.086 | [9] -0.134 | [10] -0.029 | [13] -0.249 | [16] 0.195 | [20] -0.056 | [19] 0.319

GDPD3 (UniProt Q7L5L3)
inactive: [1] -0.03 | [2] 0.228 | [3] -0.097 | [4] -0.061 | [5] -0.02 | [8] -0.404 | [13] -0.319 | [15] -0.167 | [16] -0.025

FZD5 (UniProt Q13467)
inactive: [1] 0.169 | [3] -0.103 | [4] -0.071 | [6] -0.012 | [9] 0.265 | [10] 0.277 | [12] 0.215 | [15] 0.029 | [16] 0.322 | [19] 0.164

GAK (UniProt O14976)
inactive: [1] 0.64 | [2] -0.78 | [3] -0.133 | [4] -0.821 | [5] 0.527 | [7] 0.639 | [8] 0.955 | [9] 1.08 | [10] -0.265 | [11] -0.222 | [13] 1.15 | [14] 1.13 | [15] -0.015 | [16] -0.81 | [17] 0.084 | [18] 0.344 | [19] -0.187

FOSL1 (UniProt P15407)
inactive: [1] -0.029 | [2] -0.122 | [3] -0.088 | [4] -0.086 | [5] 0.106 | [6] -0.061 | [8] -0.042 | [11] 0.065 | [12] 0.099 | [13] -0.096 | [15] -0.051 | [16] 0.05 | [18] 0 | [20] -0.025

Quoted at random: two records from the list.
GDPD3 (UniProt Q7L5L3)
inactive: [1] -0.03 | [2] 0.228 | [3] -0.097 | [4] -0.061 | [5] -0.02 | [8] -0.404 | [13] -0.319 | [15] -0.167 | [16] -0.025

GAK (UniProt O14976)
inactive: [1] 0.64 | [2] -0.78 | [3] -0.133 | [4] -0.821 | [5] 0.527 | [7] 0.639 | [8] 0.955 | [9] 1.08 | [10] -0.265 | [11] -0.222 | [13] 1.15 | [14] 1.13 | [15] -0.015 | [16] -0.81 | [17] 0.084 | [18] 0.344 | [19] -0.187

The list continues.

GGT1 (UniProt P19440)
inactive: [1] 0.019 | [2] 0.028 | [3] 0.124 | [4] 0.003 | [5] 0.008 | [6] 0.126 | [8] -0.084 | [9] 0.119 | [10] 0.06 | [11] 0.039 | [12] -0.027 | [13] 0.01 | [15] -0.086 | [16] 0.005 | [18] -0.116 | [19] -0.121

GCC1 (UniProt Q96CN9)
inactive: [1] -0.132 | [3] -0.322 | [4] 0.187 | [7] 0.087 | [11] -0.169 | [14] 0.247 | [15] 0.048 | [16] 0.005 | [17] -0.006 | [18] 0.196 | [20] 0.077

GALNT11 (UniProt Q8NCW6)
inactive: [1] 0.088 | [2] -0.019 | [3] 0.033 | [4] -0.009 | [5] 0.122 | [6] 0.118 | [7] -0.034 | [8] 0.043 | [9] -0.025 | [10] 0.014 | [11] -0.008 | [12] -0.088 | [13] -0.022 | [14] 0.065 | [15] 0.018 | [16] 0.015 | [17] 0.038 | [18] 0.045 | [19] 0.039

GCFC2 (UniProt P16383)
inactive: [1] 0.024 | [2] 0.005 | [3] 0.027 | [4] 0 | [5] -0.076 | [6] -0.108 | [7] -0.04 | [8] 0 | [9] -0.116 | [10] 0.019 | [12] 0.066 | [13] 0.045 | [14] -0.028 | [15] -0.278 | [16] 0.021 | [17] 0.056 | [20] 0.028 | [19] -0.014

GEMIN5 (UniProt Q8TEQ6)
active: [16] -0.422 | [19] -0.28
inactive: [1] -0.007 | [2] 0.066 | [3] -0.049 | [4] 0.023 | [5] 0.037 | [6] 0.045 | [7] 0.01 | [8] 0.01 | [9] 0.015 | [10] 0.017 | [11] -0.037 | [12] -0.014 | [13] -0.155 | [14] 0.034 | [15] -0.049 | [17] 0.033 | [18] 0.043

GAB2 (UniProt Q9UQC2)
inactive: [1] -0.035 | [2] 0.149 | [3] -0.033 | [4] 0.231 | [5] -0.04 | [7] -0.294 | [8] -0.196 | [9] -0.29 | [10] 0.012 | [11] -0.097 | [13] -0.573 | [14] 0.059 | [15] -0.242 | [16] -0.616 | [17] 0.094 | [18] 0.081 | [19] 0.004

FRMPD3 (UniProt Q5JV73)
inactive: [1] 0.766 | [3] -0.092 | [4] -0.039 | [6] -0.241 | [7] -0.356 | [9] 0.31 | [10] -0.157 | [12] 0.067 | [14] -0.303 | [15] 0.246 | [16] -0.056 | [17] 0.52 | [19] 0.13

GID4 (UniProt Q8IVV7)
inactive: [1] -0.033 | [2] 0.017 | [3] 0.005 | [4] 0.028 | [5] -0.046 | [6] 0.003 | [7] -0.072 | [8] -0.018 | [9] 0.042 | [10] -0.005 | [12] 0.035 | [13] 0.025 | [14] -0.019 | [15] 0.016 | [16] 0.028 | [17] 0.027 | [19] -0.071
